± gives the standard deviation of the averaged measurements. The list shows a part of the results, in another mix than the full data.
Compound: Nc1ncnc2c1ncn2[C@@H]1O[C@H](COP(=O)(O)OP(=O)(O)OP(=O)(O)O)[C@@H](O)[C@H]1O [adenosine triphosphate]
Test: NP40-soluble protein abundance relative to vehicle (solubility fold change) (ratio); higher = more soluble protein in presence of ATP
Summary of the method: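 Each value is a fold change relative to the detergent-processed vehicle, calculated per replicate from vsn-normalised intensities. Jurkat crude lysate received eight concentrations (0.1 to 10 mM) for 10 min at room temperature and 3 min at 37 °C, then was solubilised in 0.8% NP40 with benzonase (60 min, 4 °C). The ultracentrifuged supernatant was TMT-labelled and run by LC-MS/MS in three independent experiments.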

Sequences of proteins named here, by UniProt entry; tags and fusion partners are left off. A change or cut given only in a name is not applied to a line headed by its entry.
UniProt Q13043: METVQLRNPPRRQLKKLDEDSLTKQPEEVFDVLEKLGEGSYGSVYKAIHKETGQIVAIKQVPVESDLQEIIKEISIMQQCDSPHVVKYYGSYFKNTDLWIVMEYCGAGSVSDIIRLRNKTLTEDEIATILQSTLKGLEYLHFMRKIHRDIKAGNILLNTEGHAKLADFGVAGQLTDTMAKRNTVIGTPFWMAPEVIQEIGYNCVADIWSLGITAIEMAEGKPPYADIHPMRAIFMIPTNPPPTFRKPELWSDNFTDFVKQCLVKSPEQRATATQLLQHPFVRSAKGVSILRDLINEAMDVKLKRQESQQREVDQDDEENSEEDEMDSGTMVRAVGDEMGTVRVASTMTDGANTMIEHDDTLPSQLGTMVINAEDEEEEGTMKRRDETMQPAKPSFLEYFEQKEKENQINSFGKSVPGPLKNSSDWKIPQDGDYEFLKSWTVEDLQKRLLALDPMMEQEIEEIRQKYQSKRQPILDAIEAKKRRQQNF
UniProt Q05519: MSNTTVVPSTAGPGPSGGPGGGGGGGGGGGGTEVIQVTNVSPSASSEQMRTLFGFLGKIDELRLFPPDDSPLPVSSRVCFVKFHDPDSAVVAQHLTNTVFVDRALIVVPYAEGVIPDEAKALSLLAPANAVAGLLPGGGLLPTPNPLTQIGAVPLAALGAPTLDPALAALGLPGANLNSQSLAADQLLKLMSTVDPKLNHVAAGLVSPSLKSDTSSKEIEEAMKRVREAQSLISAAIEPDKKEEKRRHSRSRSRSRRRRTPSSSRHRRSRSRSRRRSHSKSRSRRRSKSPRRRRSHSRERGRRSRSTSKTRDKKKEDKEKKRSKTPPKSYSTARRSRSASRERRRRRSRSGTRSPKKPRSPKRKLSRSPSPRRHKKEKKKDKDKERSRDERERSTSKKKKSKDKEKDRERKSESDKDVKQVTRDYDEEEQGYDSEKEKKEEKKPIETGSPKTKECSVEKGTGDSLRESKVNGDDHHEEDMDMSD
UniProt Q13630: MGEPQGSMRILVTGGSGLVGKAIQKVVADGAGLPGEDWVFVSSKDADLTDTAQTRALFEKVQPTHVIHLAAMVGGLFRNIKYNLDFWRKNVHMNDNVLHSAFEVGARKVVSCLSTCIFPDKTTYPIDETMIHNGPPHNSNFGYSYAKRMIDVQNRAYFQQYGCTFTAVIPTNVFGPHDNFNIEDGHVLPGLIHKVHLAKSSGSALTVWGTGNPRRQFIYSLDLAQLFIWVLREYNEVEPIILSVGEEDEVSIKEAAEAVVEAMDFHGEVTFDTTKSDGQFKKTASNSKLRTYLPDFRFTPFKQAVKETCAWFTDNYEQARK
UniProt Q13330: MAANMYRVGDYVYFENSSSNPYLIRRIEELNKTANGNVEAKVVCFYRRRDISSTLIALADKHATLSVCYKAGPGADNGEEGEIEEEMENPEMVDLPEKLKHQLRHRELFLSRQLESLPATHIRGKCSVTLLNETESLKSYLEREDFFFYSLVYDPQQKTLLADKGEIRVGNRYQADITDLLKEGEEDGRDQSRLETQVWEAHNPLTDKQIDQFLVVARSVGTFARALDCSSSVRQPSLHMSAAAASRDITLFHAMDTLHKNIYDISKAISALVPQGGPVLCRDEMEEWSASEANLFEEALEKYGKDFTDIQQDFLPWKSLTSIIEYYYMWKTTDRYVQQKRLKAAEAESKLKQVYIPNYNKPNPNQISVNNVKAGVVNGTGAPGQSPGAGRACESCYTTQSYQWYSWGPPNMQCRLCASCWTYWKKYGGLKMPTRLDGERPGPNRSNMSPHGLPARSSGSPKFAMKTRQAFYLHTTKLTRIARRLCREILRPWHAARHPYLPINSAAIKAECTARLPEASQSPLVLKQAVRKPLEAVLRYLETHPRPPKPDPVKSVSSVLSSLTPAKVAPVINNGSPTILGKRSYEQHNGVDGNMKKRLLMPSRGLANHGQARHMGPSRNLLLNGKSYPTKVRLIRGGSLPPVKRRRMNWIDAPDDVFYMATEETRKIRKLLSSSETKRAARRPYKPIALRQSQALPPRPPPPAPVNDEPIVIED
UniProt Q12959, whole entry, looked up: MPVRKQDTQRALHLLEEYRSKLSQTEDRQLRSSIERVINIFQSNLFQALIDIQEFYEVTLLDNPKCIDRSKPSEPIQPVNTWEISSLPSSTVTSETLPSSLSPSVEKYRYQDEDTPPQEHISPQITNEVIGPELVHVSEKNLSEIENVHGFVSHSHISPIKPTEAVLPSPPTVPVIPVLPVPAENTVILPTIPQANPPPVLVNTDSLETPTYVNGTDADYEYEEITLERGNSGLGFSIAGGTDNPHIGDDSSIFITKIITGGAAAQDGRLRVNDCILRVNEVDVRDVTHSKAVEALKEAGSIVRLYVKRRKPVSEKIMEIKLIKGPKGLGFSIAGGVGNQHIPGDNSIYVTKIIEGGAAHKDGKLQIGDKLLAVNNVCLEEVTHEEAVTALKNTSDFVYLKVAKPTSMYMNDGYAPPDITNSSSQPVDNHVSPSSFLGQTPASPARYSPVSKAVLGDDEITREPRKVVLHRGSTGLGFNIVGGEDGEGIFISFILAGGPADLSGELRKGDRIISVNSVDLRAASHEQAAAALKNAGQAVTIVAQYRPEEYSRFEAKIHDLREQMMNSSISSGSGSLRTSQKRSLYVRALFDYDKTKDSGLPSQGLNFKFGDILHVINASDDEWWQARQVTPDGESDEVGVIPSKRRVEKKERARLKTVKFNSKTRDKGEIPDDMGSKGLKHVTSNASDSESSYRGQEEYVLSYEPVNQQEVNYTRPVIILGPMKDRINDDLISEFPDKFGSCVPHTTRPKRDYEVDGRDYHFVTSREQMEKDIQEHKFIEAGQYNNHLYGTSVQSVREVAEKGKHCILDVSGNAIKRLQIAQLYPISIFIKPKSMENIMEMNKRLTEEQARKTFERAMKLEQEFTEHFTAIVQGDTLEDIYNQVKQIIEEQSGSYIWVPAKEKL
UniProt Q04760: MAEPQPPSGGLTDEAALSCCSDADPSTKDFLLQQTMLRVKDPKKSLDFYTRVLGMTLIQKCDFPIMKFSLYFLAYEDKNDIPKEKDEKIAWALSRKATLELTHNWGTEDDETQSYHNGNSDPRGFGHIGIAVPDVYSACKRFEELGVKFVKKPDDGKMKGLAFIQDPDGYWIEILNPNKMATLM
UniProt Q02818: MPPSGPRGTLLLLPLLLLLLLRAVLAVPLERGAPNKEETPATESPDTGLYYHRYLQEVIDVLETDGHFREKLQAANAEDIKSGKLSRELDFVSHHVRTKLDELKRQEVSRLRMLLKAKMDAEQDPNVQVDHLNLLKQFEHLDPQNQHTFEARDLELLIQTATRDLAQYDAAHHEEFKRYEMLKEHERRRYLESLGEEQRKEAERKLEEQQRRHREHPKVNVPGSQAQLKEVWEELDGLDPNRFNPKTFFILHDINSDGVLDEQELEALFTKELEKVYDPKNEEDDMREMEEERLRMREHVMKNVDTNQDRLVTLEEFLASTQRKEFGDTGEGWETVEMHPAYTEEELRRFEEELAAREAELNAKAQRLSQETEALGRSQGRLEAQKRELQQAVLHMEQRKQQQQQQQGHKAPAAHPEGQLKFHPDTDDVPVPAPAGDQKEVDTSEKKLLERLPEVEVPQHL
UniProt Q10570: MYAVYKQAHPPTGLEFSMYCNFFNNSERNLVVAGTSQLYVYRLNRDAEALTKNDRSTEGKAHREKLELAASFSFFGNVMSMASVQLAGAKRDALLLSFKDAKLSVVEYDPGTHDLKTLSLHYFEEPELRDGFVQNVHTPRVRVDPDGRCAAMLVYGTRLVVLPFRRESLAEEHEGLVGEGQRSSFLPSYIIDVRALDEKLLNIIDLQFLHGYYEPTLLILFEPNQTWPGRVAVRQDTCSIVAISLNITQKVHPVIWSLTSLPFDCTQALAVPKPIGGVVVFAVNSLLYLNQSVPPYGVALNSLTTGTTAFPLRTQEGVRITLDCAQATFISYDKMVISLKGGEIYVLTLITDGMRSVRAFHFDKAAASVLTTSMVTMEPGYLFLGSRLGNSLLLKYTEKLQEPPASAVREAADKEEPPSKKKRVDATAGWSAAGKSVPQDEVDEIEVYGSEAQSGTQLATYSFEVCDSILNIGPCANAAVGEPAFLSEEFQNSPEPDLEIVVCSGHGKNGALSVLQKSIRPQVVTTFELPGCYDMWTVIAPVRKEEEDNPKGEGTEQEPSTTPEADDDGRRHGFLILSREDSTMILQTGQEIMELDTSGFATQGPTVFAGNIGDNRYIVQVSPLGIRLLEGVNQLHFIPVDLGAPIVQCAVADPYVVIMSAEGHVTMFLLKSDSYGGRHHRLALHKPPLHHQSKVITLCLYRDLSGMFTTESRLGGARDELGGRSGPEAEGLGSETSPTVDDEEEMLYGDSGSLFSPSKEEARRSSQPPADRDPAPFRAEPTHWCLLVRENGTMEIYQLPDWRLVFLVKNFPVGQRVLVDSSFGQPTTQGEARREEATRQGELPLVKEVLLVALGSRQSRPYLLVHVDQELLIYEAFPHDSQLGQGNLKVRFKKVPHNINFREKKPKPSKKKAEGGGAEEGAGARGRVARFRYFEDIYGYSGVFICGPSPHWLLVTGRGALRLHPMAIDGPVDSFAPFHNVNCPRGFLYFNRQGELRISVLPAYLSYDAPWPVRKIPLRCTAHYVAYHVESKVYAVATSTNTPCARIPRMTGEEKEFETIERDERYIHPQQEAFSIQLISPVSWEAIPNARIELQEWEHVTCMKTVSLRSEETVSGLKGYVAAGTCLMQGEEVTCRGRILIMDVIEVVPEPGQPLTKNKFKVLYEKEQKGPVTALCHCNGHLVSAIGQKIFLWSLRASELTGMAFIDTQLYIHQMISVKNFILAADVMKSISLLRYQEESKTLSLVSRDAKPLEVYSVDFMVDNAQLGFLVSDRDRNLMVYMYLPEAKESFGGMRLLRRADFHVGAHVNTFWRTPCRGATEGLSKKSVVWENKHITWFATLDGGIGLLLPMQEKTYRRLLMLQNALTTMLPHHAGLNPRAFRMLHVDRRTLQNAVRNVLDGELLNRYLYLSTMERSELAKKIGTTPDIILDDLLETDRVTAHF
UniProt Q13952: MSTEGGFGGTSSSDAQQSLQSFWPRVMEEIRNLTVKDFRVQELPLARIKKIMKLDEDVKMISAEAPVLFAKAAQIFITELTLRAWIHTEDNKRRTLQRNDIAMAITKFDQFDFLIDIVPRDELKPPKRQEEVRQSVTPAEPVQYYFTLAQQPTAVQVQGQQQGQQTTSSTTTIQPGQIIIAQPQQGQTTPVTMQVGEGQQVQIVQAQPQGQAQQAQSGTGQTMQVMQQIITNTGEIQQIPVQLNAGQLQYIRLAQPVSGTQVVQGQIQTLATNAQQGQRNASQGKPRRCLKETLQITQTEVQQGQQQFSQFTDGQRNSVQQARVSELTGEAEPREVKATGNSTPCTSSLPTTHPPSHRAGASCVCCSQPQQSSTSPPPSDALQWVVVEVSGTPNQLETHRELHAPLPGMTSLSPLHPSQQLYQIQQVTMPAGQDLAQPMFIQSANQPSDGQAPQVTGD
UniProt Q06210: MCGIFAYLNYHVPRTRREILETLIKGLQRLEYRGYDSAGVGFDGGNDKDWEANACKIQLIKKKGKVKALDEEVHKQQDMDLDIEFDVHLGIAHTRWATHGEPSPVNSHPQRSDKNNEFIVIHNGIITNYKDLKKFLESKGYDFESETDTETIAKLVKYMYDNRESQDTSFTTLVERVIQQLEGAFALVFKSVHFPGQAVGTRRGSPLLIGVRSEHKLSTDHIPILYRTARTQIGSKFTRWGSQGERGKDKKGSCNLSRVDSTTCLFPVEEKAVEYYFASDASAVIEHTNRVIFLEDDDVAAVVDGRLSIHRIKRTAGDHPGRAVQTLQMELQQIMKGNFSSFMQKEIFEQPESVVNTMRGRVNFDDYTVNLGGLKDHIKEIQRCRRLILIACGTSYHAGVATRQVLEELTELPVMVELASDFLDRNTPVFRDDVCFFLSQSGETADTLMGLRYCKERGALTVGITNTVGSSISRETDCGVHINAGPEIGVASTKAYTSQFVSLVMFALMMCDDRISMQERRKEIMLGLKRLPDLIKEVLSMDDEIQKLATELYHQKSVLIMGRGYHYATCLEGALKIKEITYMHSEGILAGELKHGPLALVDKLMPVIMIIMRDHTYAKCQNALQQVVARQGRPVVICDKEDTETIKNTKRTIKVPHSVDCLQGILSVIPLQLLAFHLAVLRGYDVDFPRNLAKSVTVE
UniProt Q12792, whole entry: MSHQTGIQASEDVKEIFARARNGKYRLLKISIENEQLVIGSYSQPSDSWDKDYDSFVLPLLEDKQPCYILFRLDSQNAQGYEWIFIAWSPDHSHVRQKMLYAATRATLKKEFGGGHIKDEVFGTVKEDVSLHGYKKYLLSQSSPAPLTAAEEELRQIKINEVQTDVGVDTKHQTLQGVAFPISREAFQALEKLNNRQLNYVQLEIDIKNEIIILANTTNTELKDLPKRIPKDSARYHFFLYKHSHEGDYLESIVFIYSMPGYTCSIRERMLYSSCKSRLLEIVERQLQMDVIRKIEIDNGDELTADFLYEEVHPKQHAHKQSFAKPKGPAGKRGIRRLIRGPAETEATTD

Target	NP40-soluble protein abundance (concentration: 1mM)	NP40-soluble protein abundance (concentration: 2mM)	NP40-soluble protein abundance (concentration: 4mM)	NP40-soluble protein abundance (concentration: 6mM)	NP40-soluble protein abundance (concentration: 8mM)	NP40-soluble protein abundance (concentration: 10mM)
UniProt Q13043	0.971 ± 0.014	0.965 ± 0.019	0.938 ± 0.03	0.979 ± 0.036	0.944 ± 0.039	0.926 ± 0.048
UniProt Q05519 and related entries	1.5 ± 0.11	1.5 ± 0.075	1.49 ± 0.12	1.57 ± 0.074	1.46 ± 0.11	1.45 ± 0.098
ECH1 (UniProt Q13011)	0.968 ± 0.032	0.96 ± 0.042	0.91 ± 0.023	0.957 ± 0.048	0.94 ± 0.028	0.918 ± 0.037
UniProt Q02083 and related entries	0.977 ± 0.12	0.999 ± 0.026	0.949 ± 0.069	0.952 ± 0.017	0.919 ± 0.11	0.955 ± 0.065
SLC39A6 (UniProt Q13433)	0.945 ± 0.1	0.941 ± 0.049	0.957 ± 0.029	0.939 ± 0.054	0.88 ± 0.053	0.883 ± 0.026
UniProt Q13131 and related entries	1.01 ± 0.033	0.994 ± 0.034	0.997 ± 0.051	0.994 ± 0.082	1.03 ± 0.046	1 ± 0.026
EIF3I (UniProt Q13347)	1.03 ± 0.044	1.03 ± 0.022	1.07 ± 0.015	1.18 ± 0.023	1.296 ± 0.011	1.35 ± 0.024
TSTA3 (UniProt Q13630)	0.934 ± 0.057	0.932 ± 0.081	0.946 ± 0.07	0.88 ± 0.06	0.944 ± 0.058	0.956 ± 0.059
UniProt Q13330 and related entries	1.06 ± 0.038	1.03 ± 0.012	1.017 ± 0.0059	1.01 ± 0.04	1.07 ± 0.035	1.06 ± 0.041
UniProt Q13370 and related entries	1.02 ± 0.063	0.943 ± 0.055	0.939 ± 0.088	1.04 ± 0.086	1.01 ± 0.12	0.978 ± 0.088
UniProt Q13557-12|D6R938 and related entries	1.05 ± 0.15	1.05 ± 0.086	1.1 ± 0.13	1.1 ± 0.061	1.14 ± 0.088	1.05 ± 0.11
UniProt Q12959-3|Q12959-2|Q12959-4	0.982 ± 0.024	0.989 ± 0.031	0.962 ± 0.05	0.966 ± 0.045	0.961 ± 0.052	0.98 ± 0.027
CDC20 (UniProt Q12834)	1.04 ± 0.066	1.1 ± 0.13	1.1 ± 0.11	1.05 ± 0.072	1.12 ± 0.044	1.09 ± 0.076
UniProt Q04760 and related entries	0.884 ± 0.021	0.884 ± 0.012	0.895 ± 0.067	0.856 ± 0.032	0.874 ± 0.027	0.839 ± 0.093
NUCB1 (UniProt Q02818)	0.954 ± 0.13	0.974 ± 0.059	0.954 ± 0.11	0.971 ± 0.18	0.999 ± 0.17	0.9216 ± 0.0068
UniProt Q12979-2|A0A0G2JQ41|Q12979 and related entries	1.03 ± 0.066	1.01 ± 0.055	0.998 ± 0.079	0.972 ± 0.093	0.991 ± 0.053	0.982 ± 0.055
UniProt Q06124-2|Q06124	1 ± 0.026	1.01 ± 0.039	0.992 ± 0.04	1.01 ± 0.077	1 ± 0.053	0.981 ± 0.051
UniProt Q13618 and related entries	1.02 ± 0.1	0.997 ± 0.1	0.999 ± 0.064	0.966 ± 0.096	1.02 ± 0.075	0.985 ± 0.068
FABP5 (UniProt Q01469)	0.965 ± 0.027	0.956 ± 0.031	0.908 ± 0.012	0.951 ± 0.05	0.89 ± 0.013	0.924 ± 0.033
CPSF1 (UniProt Q10570)	1.14 ± 0.14	1.23 ± 0.085	1.31 ± 0.13	1.25 ± 0.084	1.37 ± 0.07	1.37 ± 0.05
UniProt Q13952 and related entries	0.92 ± 0.05	0.934 ± 0.029	0.926 ± 0.039	0.951 ± 0.015	0.911 ± 0.011	0.89 ± 0.039
UniProt Q06210 and related entries	1.02 ± 0.095	0.983 ± 0.069	0.963 ± 0.054	0.874 ± 0.11	0.986 ± 0.033	0.972 ± 0.06
PPID (UniProt Q08752)	0.952 ± 0.023	0.946 ± 0.013	0.916 ± 0.013	0.957 ± 0.017	0.904 ± 0.034	0.905 ± 0.034
TWF1 (UniProt Q12792)	1.02 ± 0.045	1 ± 0.037	0.994 ± 0.062	0.963 ± 0.044	0.997 ± 0.06	0.986 ± 0.025
GALNT2 (UniProt Q10471)	1.02 ± 0.044	1 ± 0.059	0.975 ± 0.022	0.978 ± 0.059	0.988 ± 0.025	0.973 ± 0.036
UniProt Q13501 and related entries	0.987 ± 0.075	1 ± 0.083	0.948 ± 0.079	1.06 ± 0.22	0.897 ± 0.086	0.963 ± 0.065

As a working copy, part of the list above.
Target	NP40-soluble protein abundance (concentration: 1mM)	NP40-soluble protein abundance (concentration: 2mM)	NP40-soluble protein abundance (concentration: 4mM)	NP40-soluble protein abundance (concentration: 6mM)	NP40-soluble protein abundance (concentration: 8mM)	NP40-soluble protein abundance (concentration: 10mM)
FABP5 (UniProt Q01469)	0.965 ± 0.027	0.956 ± 0.031	0.908 ± 0.012	0.951 ± 0.05	0.89 ± 0.013	0.924 ± 0.033
CPSF1 (UniProt Q10570)	1.14 ± 0.14	1.23 ± 0.085	1.31 ± 0.13	1.25 ± 0.084	1.37 ± 0.07	1.37 ± 0.05
